Laboratory results: article PMC5996148
This is one part of the list.

What was measured:
Experiment in all cases: protein microarray (ProtoArray v5.0), streptavidin-Alexa Fluor 647
Conditions in all cases: 3'-biotin; 20 mM Tris (pH 7.5), 5 mM MgCl2, 100 mM KCl, 0.1% Tween-20, A/T-rich and random oligonucleotide blockers; temperature not stated; high values mean tight binding
[1] = test system: Serologically defined colon cancer antigen 3 (human)
Serum albumin (human) = test system: Serum albumin (human)
[2] = test system: Serum amyloid A protein (human)
[3] = test system: Signal recognition particle 9 kDa protein (human)
[4] = test system: Signal recognition particle receptor subunit beta (human)
[5] = test system: Signal transducer and activator of transcription 4 (human)
[6] = test system: Signal transducer and activator of transcription 6 (human)
[7] = test system: Smith-Magenis syndrome chromosome region candidate gene 7 protein (human)
[8] = test system: Sodium channel and clathrin linker 1 (human)
[9] = test system: Sodium channel subunit beta-1 (human)
[10] = test system: Sodium channel subunit beta-4 (human)
[11] = test system: Sodium/glucose cotransporter 2 (human)
[12] = test system: Solute carrier family 22 member 12 (human)
[13] = test system: Solute carrier family 35 member E2 (human)
[14] = test system: Solute carrier family 35 member F2 (human)
[15] = test system: Solute carrier family 41 member 3 (human)
Sorting nexin-33 (human) = test system: Sorting nexin-33 (human)
Sorting nexin-6 (human) = test system: Sorting nexin-6 (human)
[16] = test system: Sperm surface protein Sp17 (human)
[17] = test system: Sperm-associated antigen 11 (human)

“GGGAGGCTGAGGCAGG [G4-1 biotinylated (PQS2)]” was tested. Which binding signal [1] did it give?
The binding signal was -0.355 z-score.

What about the binding signal (Serum albumin (human)) of the same sequence?
Its binding signal is -0.353 z-score.

What about the binding signal [2] of the same sequence?
Its binding signal is -0.323 z-score.

And the binding signal [3]?
The binding signal was -0.363 z-score.

And the binding signal [4]?
Its binding signal is -0.321 z-score.

And the binding signal [5]?
Its binding signal is -0.343 z-score.

And the binding signal [6]?
The binding signal was -0.316 z-score.

And the binding signal [7]?
The binding signal was -0.352 z-score.

And the binding signal [8]?
The binding signal was -0.355 z-score.

And the binding signal [9]?
The binding signal was -0.346 z-score.

And the binding signal [10]?
The binding signal was -0.246 z-score.

And the binding signal [11]?
The binding signal was -0.336 z-score.

What about the binding signal [12] of the same sequence?
Its binding signal is -0.334 z-score.

What about the binding signal [13] of the same sequence?
Its binding signal is -0.344 z-score.

What about the binding signal [14] of the same sequence?
Its binding signal is -0.336 z-score.

What about the binding signal [15] of the same sequence?
The binding signal was -0.298 z-score.

And the binding signal (Sorting nexin-33 (human))?
Its binding signal is -0.3 z-score.

And the binding signal (Sorting nexin-6 (human))?
Its binding signal is -0.279 z-score.

What about the binding signal [16] of the same sequence?
Its binding signal is -0.353 z-score.

What about the binding signal [17] of the same sequence?
Its binding signal is -0.343 z-score.
